The supplement of paper PMC12067093, “Discovery and optimisation of a covalent ligand for TRIM25 and its application to targeted protein ubiquitination” (Chemical Science, 2025)
The list shows a part of the results.

Protein sequences, listed by entry. Tags and fused reporters are not part of them. Lines headed by an entry give the natural chain unless they say otherwise; changes in a name come on top.
UniProt O95479: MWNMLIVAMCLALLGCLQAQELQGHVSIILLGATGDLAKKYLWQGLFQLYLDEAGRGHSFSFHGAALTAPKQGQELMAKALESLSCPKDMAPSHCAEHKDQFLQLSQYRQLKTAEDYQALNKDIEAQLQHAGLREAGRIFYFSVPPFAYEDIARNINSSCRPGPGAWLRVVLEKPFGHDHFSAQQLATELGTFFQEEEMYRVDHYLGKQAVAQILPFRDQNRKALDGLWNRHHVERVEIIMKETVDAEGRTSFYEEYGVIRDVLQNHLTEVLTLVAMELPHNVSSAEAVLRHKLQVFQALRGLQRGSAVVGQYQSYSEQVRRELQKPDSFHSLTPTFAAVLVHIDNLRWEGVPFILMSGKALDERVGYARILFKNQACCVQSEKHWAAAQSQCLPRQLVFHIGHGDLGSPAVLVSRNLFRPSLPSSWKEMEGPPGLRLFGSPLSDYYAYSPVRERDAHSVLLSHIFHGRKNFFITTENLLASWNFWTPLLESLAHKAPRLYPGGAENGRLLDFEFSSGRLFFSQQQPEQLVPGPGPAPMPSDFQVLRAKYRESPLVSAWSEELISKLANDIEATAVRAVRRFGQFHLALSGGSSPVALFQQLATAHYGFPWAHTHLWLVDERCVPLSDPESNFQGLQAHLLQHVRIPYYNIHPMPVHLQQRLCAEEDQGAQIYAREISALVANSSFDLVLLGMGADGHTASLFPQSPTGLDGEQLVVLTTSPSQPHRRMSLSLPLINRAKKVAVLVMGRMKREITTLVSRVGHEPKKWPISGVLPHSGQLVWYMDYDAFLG
UniProt Q9Y5Q8: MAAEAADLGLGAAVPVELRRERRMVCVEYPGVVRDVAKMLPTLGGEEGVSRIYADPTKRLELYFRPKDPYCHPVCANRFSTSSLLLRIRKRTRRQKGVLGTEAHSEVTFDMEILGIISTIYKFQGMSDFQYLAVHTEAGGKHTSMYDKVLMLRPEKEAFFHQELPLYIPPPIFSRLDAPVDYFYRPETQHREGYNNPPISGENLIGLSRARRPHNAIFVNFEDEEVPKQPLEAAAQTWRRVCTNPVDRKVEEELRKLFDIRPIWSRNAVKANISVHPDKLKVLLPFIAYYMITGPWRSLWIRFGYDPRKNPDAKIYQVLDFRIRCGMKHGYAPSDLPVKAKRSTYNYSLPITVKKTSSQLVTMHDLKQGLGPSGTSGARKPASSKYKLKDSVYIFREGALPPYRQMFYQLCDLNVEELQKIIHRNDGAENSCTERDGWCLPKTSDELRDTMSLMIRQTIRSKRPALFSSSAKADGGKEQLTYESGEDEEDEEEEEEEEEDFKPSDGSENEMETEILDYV
UniProt P25098: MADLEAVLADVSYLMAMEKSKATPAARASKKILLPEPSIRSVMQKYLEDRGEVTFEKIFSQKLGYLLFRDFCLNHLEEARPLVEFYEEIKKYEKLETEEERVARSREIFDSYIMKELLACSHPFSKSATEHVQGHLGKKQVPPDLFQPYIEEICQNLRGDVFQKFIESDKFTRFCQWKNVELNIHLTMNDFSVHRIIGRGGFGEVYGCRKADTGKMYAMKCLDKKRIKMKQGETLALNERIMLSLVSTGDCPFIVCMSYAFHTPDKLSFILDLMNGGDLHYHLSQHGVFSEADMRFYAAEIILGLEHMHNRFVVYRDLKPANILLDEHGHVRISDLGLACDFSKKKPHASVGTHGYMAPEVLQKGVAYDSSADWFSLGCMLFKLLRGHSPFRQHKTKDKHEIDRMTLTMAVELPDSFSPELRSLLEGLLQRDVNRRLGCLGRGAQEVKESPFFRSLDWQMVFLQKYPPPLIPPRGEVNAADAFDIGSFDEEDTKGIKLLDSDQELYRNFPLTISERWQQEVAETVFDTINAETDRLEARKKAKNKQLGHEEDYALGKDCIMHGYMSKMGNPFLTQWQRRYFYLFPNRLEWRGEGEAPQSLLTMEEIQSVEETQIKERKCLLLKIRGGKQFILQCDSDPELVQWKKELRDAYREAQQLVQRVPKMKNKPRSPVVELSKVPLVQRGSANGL
UniProt O00178: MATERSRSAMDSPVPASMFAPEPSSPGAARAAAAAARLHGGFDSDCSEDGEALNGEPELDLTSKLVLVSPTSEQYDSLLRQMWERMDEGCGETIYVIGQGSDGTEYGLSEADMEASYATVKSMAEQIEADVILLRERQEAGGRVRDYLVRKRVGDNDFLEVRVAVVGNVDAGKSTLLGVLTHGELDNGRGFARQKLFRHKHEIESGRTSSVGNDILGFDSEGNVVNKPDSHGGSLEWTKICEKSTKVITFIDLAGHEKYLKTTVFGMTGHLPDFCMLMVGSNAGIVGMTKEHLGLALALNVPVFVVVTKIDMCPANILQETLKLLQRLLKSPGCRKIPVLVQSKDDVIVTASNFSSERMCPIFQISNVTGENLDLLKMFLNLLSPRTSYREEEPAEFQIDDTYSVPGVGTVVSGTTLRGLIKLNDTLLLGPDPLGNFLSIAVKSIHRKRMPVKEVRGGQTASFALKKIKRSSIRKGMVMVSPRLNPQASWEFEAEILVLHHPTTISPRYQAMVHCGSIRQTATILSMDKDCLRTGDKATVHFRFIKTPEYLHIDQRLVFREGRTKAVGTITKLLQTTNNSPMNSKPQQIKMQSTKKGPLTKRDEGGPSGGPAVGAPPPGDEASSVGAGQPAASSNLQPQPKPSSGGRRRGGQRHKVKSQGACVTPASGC
UniProt P40939: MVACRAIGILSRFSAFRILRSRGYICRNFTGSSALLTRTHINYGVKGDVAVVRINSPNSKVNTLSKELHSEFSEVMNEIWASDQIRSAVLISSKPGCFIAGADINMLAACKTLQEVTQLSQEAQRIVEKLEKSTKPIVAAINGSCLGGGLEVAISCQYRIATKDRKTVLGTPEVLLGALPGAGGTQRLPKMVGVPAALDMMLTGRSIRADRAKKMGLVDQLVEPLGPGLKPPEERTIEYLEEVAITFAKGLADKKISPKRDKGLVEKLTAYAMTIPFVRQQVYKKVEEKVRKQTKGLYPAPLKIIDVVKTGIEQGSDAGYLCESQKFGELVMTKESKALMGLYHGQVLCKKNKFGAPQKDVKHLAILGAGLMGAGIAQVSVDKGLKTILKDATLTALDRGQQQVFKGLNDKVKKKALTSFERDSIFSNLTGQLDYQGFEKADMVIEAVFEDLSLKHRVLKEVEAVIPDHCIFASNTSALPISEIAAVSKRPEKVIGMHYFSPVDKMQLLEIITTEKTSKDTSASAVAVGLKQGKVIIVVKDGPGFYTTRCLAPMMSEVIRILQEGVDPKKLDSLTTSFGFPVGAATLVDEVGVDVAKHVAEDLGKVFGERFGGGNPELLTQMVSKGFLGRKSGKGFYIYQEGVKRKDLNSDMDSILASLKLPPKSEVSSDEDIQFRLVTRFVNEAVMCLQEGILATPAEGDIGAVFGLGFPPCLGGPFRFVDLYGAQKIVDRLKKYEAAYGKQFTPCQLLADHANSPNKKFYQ
UniProt O43824: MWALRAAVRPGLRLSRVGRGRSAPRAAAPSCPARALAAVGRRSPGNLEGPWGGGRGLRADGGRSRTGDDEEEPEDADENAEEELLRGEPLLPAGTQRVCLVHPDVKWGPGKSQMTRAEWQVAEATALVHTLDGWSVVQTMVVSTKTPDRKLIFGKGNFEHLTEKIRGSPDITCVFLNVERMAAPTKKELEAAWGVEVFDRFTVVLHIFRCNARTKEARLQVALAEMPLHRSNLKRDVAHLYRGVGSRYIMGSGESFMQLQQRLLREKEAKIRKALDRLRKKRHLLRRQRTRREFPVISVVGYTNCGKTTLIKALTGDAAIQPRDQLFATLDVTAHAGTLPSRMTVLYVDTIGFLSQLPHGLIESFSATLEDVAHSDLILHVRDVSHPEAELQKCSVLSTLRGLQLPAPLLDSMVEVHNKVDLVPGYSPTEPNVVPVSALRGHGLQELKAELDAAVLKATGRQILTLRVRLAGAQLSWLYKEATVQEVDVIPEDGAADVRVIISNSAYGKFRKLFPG
UniProt Q9Y5Q9: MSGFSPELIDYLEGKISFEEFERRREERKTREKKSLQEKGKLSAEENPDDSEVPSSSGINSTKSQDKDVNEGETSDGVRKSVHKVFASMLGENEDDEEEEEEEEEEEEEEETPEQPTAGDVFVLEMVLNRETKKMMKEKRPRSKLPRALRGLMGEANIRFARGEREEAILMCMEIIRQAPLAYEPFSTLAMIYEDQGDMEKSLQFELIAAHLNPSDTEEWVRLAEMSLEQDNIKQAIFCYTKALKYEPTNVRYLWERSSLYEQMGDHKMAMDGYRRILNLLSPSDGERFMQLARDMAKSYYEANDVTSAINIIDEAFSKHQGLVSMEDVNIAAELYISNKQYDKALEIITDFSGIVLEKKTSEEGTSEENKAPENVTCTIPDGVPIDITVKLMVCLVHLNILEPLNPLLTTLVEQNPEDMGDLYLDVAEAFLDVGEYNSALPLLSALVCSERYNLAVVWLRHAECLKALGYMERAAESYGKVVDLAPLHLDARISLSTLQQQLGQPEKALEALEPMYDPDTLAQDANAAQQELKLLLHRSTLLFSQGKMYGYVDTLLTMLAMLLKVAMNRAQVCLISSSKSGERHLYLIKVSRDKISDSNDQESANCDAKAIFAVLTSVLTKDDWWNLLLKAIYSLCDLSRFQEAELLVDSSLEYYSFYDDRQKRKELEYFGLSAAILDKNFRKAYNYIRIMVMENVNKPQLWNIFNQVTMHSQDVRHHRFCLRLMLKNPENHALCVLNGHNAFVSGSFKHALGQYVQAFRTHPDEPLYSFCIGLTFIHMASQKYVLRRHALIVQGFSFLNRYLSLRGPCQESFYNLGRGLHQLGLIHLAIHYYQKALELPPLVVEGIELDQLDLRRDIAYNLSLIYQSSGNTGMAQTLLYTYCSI
UniProt Q8TD30: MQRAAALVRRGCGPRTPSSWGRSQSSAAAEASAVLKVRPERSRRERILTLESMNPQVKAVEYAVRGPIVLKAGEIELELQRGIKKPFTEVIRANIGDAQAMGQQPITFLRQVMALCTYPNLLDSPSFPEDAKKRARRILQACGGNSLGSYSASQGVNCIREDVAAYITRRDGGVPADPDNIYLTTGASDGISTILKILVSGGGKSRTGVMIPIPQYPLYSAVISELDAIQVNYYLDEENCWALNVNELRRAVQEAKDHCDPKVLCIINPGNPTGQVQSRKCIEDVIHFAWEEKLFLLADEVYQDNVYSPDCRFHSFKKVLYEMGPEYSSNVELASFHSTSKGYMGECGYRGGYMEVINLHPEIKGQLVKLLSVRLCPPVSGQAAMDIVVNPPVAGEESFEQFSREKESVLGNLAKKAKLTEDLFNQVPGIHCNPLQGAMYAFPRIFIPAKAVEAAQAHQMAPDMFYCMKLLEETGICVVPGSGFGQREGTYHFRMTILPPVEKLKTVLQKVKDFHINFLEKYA
UniProt P48637: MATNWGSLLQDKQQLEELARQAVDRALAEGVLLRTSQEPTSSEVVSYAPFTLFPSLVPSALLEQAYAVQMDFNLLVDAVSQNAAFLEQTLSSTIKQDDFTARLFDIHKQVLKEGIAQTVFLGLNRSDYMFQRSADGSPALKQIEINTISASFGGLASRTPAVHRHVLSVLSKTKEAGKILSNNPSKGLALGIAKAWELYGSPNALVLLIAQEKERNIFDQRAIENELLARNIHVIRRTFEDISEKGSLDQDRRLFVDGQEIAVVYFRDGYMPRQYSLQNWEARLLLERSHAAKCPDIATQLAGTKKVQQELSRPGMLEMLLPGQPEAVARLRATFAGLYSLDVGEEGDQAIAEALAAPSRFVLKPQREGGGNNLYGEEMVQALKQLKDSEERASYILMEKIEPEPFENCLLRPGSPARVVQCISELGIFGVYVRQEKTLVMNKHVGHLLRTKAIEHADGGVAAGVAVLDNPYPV
UniProt P21266: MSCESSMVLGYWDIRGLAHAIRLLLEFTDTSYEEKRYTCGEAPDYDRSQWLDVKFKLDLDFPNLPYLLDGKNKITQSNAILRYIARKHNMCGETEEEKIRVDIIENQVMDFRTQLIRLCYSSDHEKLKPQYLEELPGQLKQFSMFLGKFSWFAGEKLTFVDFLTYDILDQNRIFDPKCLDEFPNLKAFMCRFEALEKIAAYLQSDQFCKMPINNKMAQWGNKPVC

Compound: CC1Cc2ccccc2N1C(=O)C1CCCN(C1)C(=O)CCl (mixture of isomers) [TRIM25 ligand 11 (diastereomer mixture)]
Test: probe-labelled cysteine peptide fold change vs DMSO (competition) (log2 fold change); higher = less target engagement (more negative = stronger competition)
Conditions: 50 µM; THP-1; incubation time: 4 h
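Further: competitive chemoproteomic profiling in live THP-1 cells with an iodoacetamide desthiobiotin (IA-DTB) probe, comparing probe-labelled peptide intensities in compound-treated cells against DMSO-treated controls.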

| Target | probe-labelled cysteine peptide fold change |
| --- | --- |
| GSN_P06396_331_SEDCFILDHGKDGK (UniProt P06396) | 0.314 |
| H6PD_O95479_95_DMAPSHCAEHK (UniProt O95479) | -0.0387 |
| GTF3C5_Q9Y5Q8_432_NDGAENSCTER (UniProt Q9Y5Q8) | -0.445 |
| GSE1_Q14687_1199_CLALPAMHWPR (UniProt Q14687) | 0.165 |
| H6PD_O95479_663_LCAEEDQGAQIYAR (UniProt O95479) | 0.138 |
| GTF2I_P78347_215_SILSPGGSCGPIK (UniProt P78347) | -0.16 |
| GRK2_P25098_120_ELLACSHPFSK (UniProt P25098) | -0.0684 |
| GRN_P28799_171_VHCCPHGAFCDLVHTR (UniProt P28799) | 0.306 |
| GTPBP1_O00178_360_MCPIFQISNVTGENLDLLK (UniProt O00178) | -0.0504 |
| HAGH_Q16775_219_VYCGHEYTINNLK (UniProt Q16775) | 0.0446 |
| HADHA_P40939_349_ALMGLYHGQVLCKK (UniProt P40939) | -0.365 |
| GTPBP6_O43824_99_VCLVHPDVK (UniProt O43824) | -0.0422 |
| GTF3C3_Q9Y5Q9_239_QAIFCYTK (UniProt Q9Y5Q9) | 0.0142 |
| GPT2_Q8TD30_432_LTEDLFNQVPGIHCNPLQGAMYAFPR (UniProt Q8TD30) | -0.0781 |
| GSS_P48637_422_VVQCISELGIFGVYVR (UniProt P48637) | -0.306 |
| GTF3C1_Q12789_1188_VGSELCAGWEEQFEVDREPSLDR (UniProt Q12789) | 0.0552 |
| GSTM3_P21266_91_HNMCGETEEEK (UniProt P21266) | -0.0368 |

Looked up one by one from above (two):

| Target | probe-labelled cysteine peptide fold change |
| --- | --- |
| GTPBP6_O43824_99_VCLVHPDVK (UniProt O43824) | -0.0422 |
| GTF3C5_Q9Y5Q8_432_NDGAENSCTER (UniProt Q9Y5Q8) | -0.445 |
